From paper PMC12101078
No constants are given. Whether binding was seen depends on the method and setting. In cells and extracts the contact can be indirect. Binding can be weak; no strength is given. For some of these results: Tags and fused reporters may be left off the sequences shown.

Amino acid sequences for entries named in this document (tags omitted). A change or cut given only in a name is not applied to a line headed by its entry.
UniProt Q03370: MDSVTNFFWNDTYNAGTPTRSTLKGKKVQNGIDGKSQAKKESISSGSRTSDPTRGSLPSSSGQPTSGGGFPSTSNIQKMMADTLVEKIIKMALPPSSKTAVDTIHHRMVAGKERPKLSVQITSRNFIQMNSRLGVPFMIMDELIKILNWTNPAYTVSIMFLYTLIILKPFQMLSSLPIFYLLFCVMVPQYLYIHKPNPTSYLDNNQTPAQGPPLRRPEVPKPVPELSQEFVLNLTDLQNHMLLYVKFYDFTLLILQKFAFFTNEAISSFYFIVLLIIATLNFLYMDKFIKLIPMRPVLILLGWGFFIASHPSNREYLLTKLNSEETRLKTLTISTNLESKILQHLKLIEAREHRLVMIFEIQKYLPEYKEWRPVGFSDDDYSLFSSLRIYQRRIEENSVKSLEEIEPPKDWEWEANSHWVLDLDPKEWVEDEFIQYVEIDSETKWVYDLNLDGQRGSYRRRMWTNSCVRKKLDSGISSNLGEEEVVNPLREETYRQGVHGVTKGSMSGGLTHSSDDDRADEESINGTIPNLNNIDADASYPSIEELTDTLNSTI

T1: Pex28-13xMyc (S. cerevisiae) (UniProt P38848)
T1 sequence: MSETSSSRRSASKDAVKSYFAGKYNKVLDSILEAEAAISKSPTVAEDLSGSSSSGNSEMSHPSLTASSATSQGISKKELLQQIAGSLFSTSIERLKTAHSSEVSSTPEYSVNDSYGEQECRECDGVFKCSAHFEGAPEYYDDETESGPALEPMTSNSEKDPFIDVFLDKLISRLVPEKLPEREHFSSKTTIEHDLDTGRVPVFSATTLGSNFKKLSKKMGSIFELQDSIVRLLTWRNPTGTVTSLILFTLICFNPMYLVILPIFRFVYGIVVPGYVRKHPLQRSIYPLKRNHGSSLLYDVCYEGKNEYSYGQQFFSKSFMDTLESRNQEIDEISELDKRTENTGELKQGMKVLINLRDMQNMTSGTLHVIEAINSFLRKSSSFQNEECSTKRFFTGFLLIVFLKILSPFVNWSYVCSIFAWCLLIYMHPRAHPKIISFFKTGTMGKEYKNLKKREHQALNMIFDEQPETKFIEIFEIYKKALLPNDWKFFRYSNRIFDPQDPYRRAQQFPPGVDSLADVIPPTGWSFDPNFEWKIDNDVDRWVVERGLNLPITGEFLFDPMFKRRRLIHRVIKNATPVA

T2: Pex32-3xHA (S. cerevisiae) (UniProt P38292)
T2 sequence: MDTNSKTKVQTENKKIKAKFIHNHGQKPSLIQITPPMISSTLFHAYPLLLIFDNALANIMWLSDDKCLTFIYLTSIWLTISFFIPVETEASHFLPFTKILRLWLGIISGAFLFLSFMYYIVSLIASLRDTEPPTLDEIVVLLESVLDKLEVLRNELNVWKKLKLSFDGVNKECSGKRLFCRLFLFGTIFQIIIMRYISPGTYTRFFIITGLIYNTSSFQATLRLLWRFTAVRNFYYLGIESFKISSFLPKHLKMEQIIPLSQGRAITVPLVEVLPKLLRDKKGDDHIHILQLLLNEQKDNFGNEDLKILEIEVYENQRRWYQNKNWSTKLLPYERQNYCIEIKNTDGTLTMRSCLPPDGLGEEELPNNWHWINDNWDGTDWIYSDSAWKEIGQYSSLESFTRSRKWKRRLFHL


What was measured:
Test in all cases: co-IP; crude membrane fraction of yeast solubilised with 1% DMNG in 50 mM Tris-HCl pH 7.4, 200 mM NaCl, 1 mM EDTA; tagged protein isolated 2 h at 4°C on anti-HA, anti-V5 or anti-Myc magnetic beads, washed with 0.02% DMNG; Pex30 detected by immunoblot with anti-Pex30
[1] = molecular target: T1, Pex28-13xMyc (S. cerevisiae)
[2] = molecular target: T2, Pex32-3xHA (S. cerevisiae)
[3] = molecular target: Pex29^DysFΔ (S. cerevisiae) (UniProt Q03370)
[4] = molecular target: Pex32^DysFΔ (S. cerevisiae) (UniProt P38292)

binding [1]	binding [2]	binding [3]	binding [4]	Molecule
binds	binds			Pex30^DysFΔ (from UniProt Q06169)
		binds	binds	Pex30 (protein, UniProt Q06169 1-523) MSGNTTNVHETRAKFAETLQPRIGGNTTKVIRAALEKNEAESGVSEDNDNGSLEKVNVATSPLLTSTPPTISKALVKLYPYLILIDEFLNVVTWTGKNIWSSVLMLCLFITTVEYFETLVKYFGHLAIIAILWGYSLLDNYIEGTLSSSPTLEDIALLMNRVSLKSDILLSPMVNLGTQDIQRLLYTTVILSPIYVMITWLLLPPRSLMLMVGMFLLTYHSPWSKVARRLLWKFKIVRLLVFYVTGLDLGGINKDQGIFATVQKQVKKLASTENSNGVLSDSKPIRFTYVLYENQRRWLGIGWKPSMLSYERTPWTDEFLNEAPSPENFHLPEETNTMVWRWVDKTWRLDMTNDGAIQVPNSKARTSADPSPDEGFIYYDNTWKKPSKEDSFSKYTRRRRWVRTAELVKTSDFDESVINSNRNSAIEQKVEENSTNGLTAEQELGSNKQEKDNAKKVGEPTTEETKEFAEASNINEGEFERISSTDEEVLKSRARDRLAKVLDDTEEKEQSNPTIGRDSKKAV
